# Laboratory results published in article PMC12658286.
# Protein sequences, listed by entry. Tags and fused reporters are not part of them. Residues count along the entry.
# UniProt Q8N428: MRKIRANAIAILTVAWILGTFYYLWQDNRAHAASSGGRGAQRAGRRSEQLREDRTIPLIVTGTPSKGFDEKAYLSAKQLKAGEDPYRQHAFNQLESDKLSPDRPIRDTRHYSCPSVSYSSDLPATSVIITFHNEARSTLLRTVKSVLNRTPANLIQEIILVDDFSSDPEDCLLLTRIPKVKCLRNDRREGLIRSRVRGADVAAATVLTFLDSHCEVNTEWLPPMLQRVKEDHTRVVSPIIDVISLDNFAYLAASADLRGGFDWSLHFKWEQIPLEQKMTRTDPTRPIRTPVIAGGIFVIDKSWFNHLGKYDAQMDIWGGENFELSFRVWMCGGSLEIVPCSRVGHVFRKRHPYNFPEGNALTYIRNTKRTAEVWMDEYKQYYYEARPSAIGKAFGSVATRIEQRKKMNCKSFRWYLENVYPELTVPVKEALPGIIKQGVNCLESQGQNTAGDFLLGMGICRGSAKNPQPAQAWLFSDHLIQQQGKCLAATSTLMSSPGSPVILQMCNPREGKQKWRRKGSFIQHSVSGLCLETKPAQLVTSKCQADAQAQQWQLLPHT
# UniProt Q9NZQ7, residues 19-290: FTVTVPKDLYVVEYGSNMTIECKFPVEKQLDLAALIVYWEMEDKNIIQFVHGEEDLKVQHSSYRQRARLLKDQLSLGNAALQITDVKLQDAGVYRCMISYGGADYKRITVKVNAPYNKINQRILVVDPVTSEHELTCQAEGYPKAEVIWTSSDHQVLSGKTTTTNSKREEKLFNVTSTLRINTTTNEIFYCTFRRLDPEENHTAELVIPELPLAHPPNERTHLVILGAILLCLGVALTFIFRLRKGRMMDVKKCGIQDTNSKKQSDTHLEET
# Results are given in words; binding and its absence hold for the method and conditions named. In cells and extracts the contact can be indirect. Some results given as binding are weak or reduced against the parent protein; the word gives no strength.
# Experiments:
# [1] = molecular target: HA‐tagged GALNT16 (polypeptide N‐acetylgalactosaminyltransferase 16) (UniProt Q8N428); test: co-IP; HepG2 and PLC/PRF/5 cells transfected with GALNT16‐HA and PD‐L1‐Flag for 48 h; lysates incubated with FLAG‐ or HA‐conjugated magnetic beads at room temperature for 2 h; anti‐Flag immunoprecipitates blotted for HA, anti‐HA immunoprecipitates blotted for Flag
# [2] = molecular target: Flag‐tagged PD‐L1 (programmed death ligand‐1), wild type (UniProt Q9NZQ7); test: as above
Substance,binding [1],binding [2]
"Flag‐tagged PD‐L1 (programmed death ligand‐1), wild type (from UniProt Q9NZQ7 19-290)",binds,
HA‐tagged GALNT16 (polypeptide N‐acetylgalactosaminyltransferase 16) (from UniProt Q8N428 1-558) (enzyme),,binds
